The supplement of paper PMC12823440, “Inhibitors supercharge kinase turnover through native proteolytic circuits” (Nature, 2025)
The other results are listed elsewhere or left out. The calls rarely recur for the same compound in another form.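 In K562 cells expressing nanoluciferase-fused kinases, luminescence was recorded at 4 h intervals between 2 and 18 h, normalized as percent of control with DMSO at 100% and a positive control at 0%. A significant (2 sigma) signal drop marks a time point as decreased. The authors' rule for a hit is not shown and takes in more than the number of time points.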

The chains behind the UniProt entries cited, without tags or fusion partners.
UniProt Q14289, whole entry, looked up: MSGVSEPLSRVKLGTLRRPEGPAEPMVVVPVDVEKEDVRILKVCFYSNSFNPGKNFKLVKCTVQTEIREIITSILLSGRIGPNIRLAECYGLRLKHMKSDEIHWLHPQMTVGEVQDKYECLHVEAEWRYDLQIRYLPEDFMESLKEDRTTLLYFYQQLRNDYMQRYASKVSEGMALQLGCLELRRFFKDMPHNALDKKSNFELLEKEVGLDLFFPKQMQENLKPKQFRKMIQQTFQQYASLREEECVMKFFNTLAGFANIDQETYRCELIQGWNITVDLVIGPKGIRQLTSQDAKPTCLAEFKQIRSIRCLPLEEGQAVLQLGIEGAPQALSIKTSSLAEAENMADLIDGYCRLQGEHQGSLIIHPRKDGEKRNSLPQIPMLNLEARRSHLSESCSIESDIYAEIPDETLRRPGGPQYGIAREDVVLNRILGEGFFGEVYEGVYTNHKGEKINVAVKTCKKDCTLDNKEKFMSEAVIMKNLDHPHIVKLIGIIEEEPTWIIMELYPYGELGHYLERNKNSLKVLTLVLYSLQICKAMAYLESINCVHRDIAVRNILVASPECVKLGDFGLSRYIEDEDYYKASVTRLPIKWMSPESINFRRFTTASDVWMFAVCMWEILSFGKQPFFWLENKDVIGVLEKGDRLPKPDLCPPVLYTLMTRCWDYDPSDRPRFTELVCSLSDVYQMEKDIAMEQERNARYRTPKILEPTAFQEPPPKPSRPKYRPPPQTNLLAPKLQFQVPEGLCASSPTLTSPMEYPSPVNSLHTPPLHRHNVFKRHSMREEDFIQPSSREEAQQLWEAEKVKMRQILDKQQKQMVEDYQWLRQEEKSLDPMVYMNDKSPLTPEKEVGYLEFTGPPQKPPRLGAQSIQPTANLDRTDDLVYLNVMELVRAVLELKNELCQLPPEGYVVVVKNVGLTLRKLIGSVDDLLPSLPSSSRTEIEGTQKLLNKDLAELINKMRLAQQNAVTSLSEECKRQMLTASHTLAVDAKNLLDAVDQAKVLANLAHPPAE

biological target: PTK2B (UniProt Q14289); assay: number of time points (of 5) at which kinase-Nluc abundance scored as decreased, DMSO-normalised (count); higher = more persistent destabilization; details: K562; 2-18 h

Structure (SMILES)	number of time points
C[C@@H](c1ccc2nccn2c1)n1nnc2ncc(-c3cnn(C)c3)nc21 [Savolitinib] (10 µM)	0
CN1C(=O)C(Cc2c[nH]c3ccccc23)NC1=S (stereo unspecified) [Necrostatin-1] (10 µM)	0
C[C@@H]1C(=O)O[C@H](C)[C@H]1C[C@@H](O)[C@](C)(O)[C@H]1CC[C@@]2(O)C3=CC(=O)[C@@H]4C[C@@H](O)[C@@H](O)C[C@]4(C)[C@H]3CC[C@]12C [Cyasterone] (10 µM)	0
CC(c1ccc(-c2cnc3c(-c4ccc(S(N)(=O)=O)c5ccccc45)cnn3c2)cc1)N1CCCC1 (stereo unspecified) (2.5 µM)	0
CCn1c(=O)c(-c2ccc(-c3cncc(C)n3)cc2Cl)cc2cnc(NCCC3CCN(C)CC3)nc21 (10 µM)	0
O=C(O)c1cc(O)ccc1O [2,5-Dihydroxybenzoic acid] (10 µM)	0
CC(=NNC(=O)c1ccc(C)c(Br)c1)c1ccc(O)cc1O [mTOR inhibitor-1] (2.5 µM)	0
Nc1ncnc2c1ncn2[C@@H]1O[C@H](CO)C[C@H]1O [Cordycepin] (10 µM)	0
C=CC(=O)Nc1cc2c(Nc3ccc(OCc4ccccn4)c(Cl)c3)ncnc2cc1OCCN1CCOCC1 (10 µM)	0
Cc1ccc(S(=O)(=O)Nc2ccccc2C=Nc2ccccc2NS(=O)(=O)c2ccc(C)cc2)cc1 (10 µM)	0
CCOc1cc(C(=O)N2CCC(N3CCN(C)CC3)CC2)ccc1Nc1ncc2c(n1)N(C1CCCC1)c1ccccc1C(=O)N2C (10 µM)	0

Some of the entries so far, in markdown.

| Structure (SMILES) | number of time points |
| --- | --- |
| C[C@@H](c1ccc2nccn2c1)n1nnc2ncc(-c3cnn(C)c3)nc21 [Savolitinib] (10 µM) | 0 |
| CN1C(=O)C(Cc2c[nH]c3ccccc23)NC1=S (stereo unspecified) [Necrostatin-1] (10 µM) | 0 |
